Results are given in words; binding and its absence hold for the method and conditions named. In cells and extracts the contact can be indirect. These calls come from enrichment with a bait or labelling near it, and not all partners need be listed. Sequences can lack the tags named with a protein.
Molecular target: T1, Flag-tagged PPM1G protein (UniProt O15355)
T1 sequence: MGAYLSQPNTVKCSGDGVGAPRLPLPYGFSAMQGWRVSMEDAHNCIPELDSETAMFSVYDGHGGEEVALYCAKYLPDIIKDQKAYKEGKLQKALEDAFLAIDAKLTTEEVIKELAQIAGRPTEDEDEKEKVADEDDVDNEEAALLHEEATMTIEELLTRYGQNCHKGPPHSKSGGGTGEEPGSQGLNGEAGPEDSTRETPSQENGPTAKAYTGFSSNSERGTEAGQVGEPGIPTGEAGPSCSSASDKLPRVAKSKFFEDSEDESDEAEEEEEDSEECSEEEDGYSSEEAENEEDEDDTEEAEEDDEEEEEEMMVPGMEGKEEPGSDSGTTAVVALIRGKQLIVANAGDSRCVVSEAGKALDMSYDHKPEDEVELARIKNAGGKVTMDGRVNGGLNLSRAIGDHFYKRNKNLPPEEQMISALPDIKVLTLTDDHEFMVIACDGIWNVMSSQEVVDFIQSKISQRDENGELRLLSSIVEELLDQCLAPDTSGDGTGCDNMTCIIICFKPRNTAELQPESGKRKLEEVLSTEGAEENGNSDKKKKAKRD
Experiment: affinity purification with mass spectrometry; immunoprecipitation of Flag-tagged PPM1G from cell lysate (20 mM Tris-HCl pH 8.0, 2 mM EDTA, 1% Triton X-100, 150 mM NaCl; washes with 350 mM NaCl), protein G beads, 4 °C, then LC-MS/MS

- binding: binds
B1: SRSF3 (protein, UniProt P84103 1-164)
chain: MHRDSCPLDCKVYVGNLGNNGNKTELERAFGYYGPLRSVWVARNPPGFAFVEFEDPRDAADAVRELDGRTLCGCRVRVELSNGEKRSRNRGPPPSWGRRPRDDYRRRSPPPRRRSPRRRSFSRSRSRSLSRDRRRERSLSRERNHKPSRSFSRSRSRSRSNERK

— paper PMC8295330
